Results are given in words; binding and its absence hold for the method and conditions named. A result given as binding can be weak or reduced; the word gives no strength.
Target: T1, RCAR1/PYL9 bait (pGBKT7) (Arabidopsis) (UniProt Q84MC7)
T1 sequence: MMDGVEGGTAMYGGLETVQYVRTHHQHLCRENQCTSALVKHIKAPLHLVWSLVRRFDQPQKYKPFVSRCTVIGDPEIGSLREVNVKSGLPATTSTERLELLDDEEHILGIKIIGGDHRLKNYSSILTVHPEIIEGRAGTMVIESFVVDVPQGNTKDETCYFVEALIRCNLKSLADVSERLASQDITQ
Assay: two-hybrid; AH109 yeast; baits in pGBKT7, preys in pGADT7; growth on SD/-L-T-H-A and X-α-Gal staining, 3 days at 30 °C; with or without 10 μM ABA in the medium

full-length AtMYB70 prey (pGADT7) (Arabidopsis)
binding: binds

From PMC4057743, “Arabidopsis ABA Receptor RCAR1/PYL9 Interacts with an R2R3-Type MYB Transcription Factor, AtMYB44” (International Journal of Molecular Sciences, 2014)
